Data on 61 compounds can be found in PubChem BioAssay AID2685 (National Center for Advancing Translational Sciences (NCATS), 2010).

This assay in a line: qHTS Assay for Lipid Storage Modulators in Drosophila S3 Cells.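 On cell number change: cells counted by Cell Tracker Red CMTPX staining in the red channel.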 Particulars: BODIPY lipid droplet fluorescence, 18-24 h; for cell number change: measured here: cell count max response, cells fed with added oleic acid. The procedure, abridged:
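Drosophila S3 cells loaded with oleic acid (400 uM, as added) and compounds at several concentrations; lipid droplets imaged by 488-nm laser-scanning cytometry, 500–530 nm intensity and object ratio to cell channel. Percent activity normalized to 20 uM Triacsin C.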
A general note: qHTS replaces the single test concentration by a dilution series.

[1] abbreviates: measured here: cell number channel AC50, cells fed with added oleic acid.
Setting [2] is: measured here: lipid fluorescence (Fed channel) AC50, cells fed with added oleic acid.

In general, AC50 refers to the concentration at which the activity in the assay is half-maximal. A high value points to activity only at high concentration.

The list shows a part of the results. The main result of the screen is listed elsewhere. These columns were measured beside it and carry no call. Most of these compounds were active or inconclusive in the main read-out, so they are no random draw. The note in brackets gives the kind of curve behind each potency; many fits are weak.

In the case of `CCO/C=N/c1c(C#N)c(CC#N)nn1-c1ccccc1`, the AC50 runs as follows: under setting [1], 2.59 µM [rising, partial curve]; under setting [2], 29.1 µM [rising, single point]. On to `CC(=O)Nc1ccc(S(=O)(=O)c2cc(O)ccc2O)cc1`, for which the cell number change is -5.77%. Regarding `Cc1ccccc1C(=O)N1CCC(C(=O)Nc2ccc3c(c2)OCCO3)CC1`, the cell number change came to 17.6%. Also, the AC50 under setting [2] was 3.66 µM [falling, full curve, poor fit]. As for `Oc1cccc2cc3cccc(O)c3c(O)c12`, the AC50 under setting [2] is 0.13 µM [falling, full curve, poor fit].

With `C=CCc1ccccc1OCCCCN1CCCC1`, the cell number change is -24.3%. Further, under setting [1], the AC50 is 0.731 µM [falling, full curve, poor fit]. Also, the AC50 under setting [2] was 0.0206 µM [falling, full curve, poor fit]. For `COc1ccc(NC(=S)NCc2ccc3c(c2)cc(C)n3C)cc1`, the cell number change is 20.3%. In addition, under setting [2], the AC50 was 29.1 µM [rising, single point].

On to `CC1CC(C(F)(F)F)n2ncc(C(=O)O)c2N1` (stereo not drawn), for which the cell number change was -18.6%. Under setting [2], the AC50 is 23.1 µM [falling, single point]. With `COC(=O)Nc1ccc(S(=O)(=O)N2CCCCC2)cc1`, the cell number change is -59%. Also, the AC50 under setting [1] is 10.3 µM [falling, partial curve, poor fit]. The AC50 under setting [2] is 23.1 µM [falling, partial curve]. As to `CCOc1ccccc1NC(=O)C1CCCN(C(=O)NCc2ccccc2)C1` (stereo not drawn), the AC50 under setting [1] was 6.51 µM [rising, single point]. As to `CCCCNC(=S)NNC(=O)c1csc2c1CCC(C)C2` (stereo not drawn), the AC50 under setting [2] is 16.4 µM [falling, single point]. On to `CCOc1ccc(C(=O)N/N=C/c2c(C)[nH]c(=O)[nH]c2=O)cc1`, for which the cell number change turned out to be 16.6%. The half-maximal activity concentration (AC50) under setting [1] was 4.11 µM [rising, single point]. In the case of `CN(c1ccccc1C(=O)Nc1cccc(C(F)(F)F)c1)S(C)(=O)=O`, the cell number change was 0.656%. Consider `O=C(Cc1n[nH]c(=O)c2ccccc12)OCC(=O)N(Cc1ccccc1)Cc1ccccc1`, for which the cell number change is 36.6%. Besides, the AC50 under setting [2] was 29.1 µM [rising, single point]. Regarding `O=C(N/N=C/c1cccc(F)c1)NC1CCCCC1`, the cell number change was -43.7%. Moreover, under setting [1], the AC50 is 16.4 µM [falling, single point]. Under setting [2], the AC50 was 14.6 µM [falling, single point]. Regarding `CCc1cccc(C)c1NC(=O)C1CCCN1C(=O)NCc1ccccc1` (stereo not drawn), the cell number change is -1.35%. The AC50 under setting [2] is 29.1 µM [falling, single point]. Consider `O=C(Cc1ccccc1)NCC(=O)OCC(=O)c1ccc(Cl)cc1`, for which the cell number change was determined as 22%. For the same compound, the AC50 under setting [2] is 1.3 µM [rising, full curve, poor fit].

`NS(=O)(=O)c1ccc(NC(=O)CSc2n[nH]c(=O)n2C2CC2)cc1`: the cell number change turned out to be 8.58%. Further, the AC50 under setting [1] was 0.82 µM [falling, partial curve]. Also, the AC50 under setting [2] is 0.517 µM [falling, partial curve, poor fit]. `COCCN(C(=O)COC(=O)c1cccnc1Cl)c1c(N)n(Cc2ccccc2)c(=O)[nH]c1=O`: the AC50 under setting [2] was 3.66 µM [rising, partial curve]. On to `Nc1ccc(S(=O)(=O)N2CCOCCOCCOCCOCCOCC2)cc1`, for which the cell number change was -6.57%. On to `Cc1noc(C)c1C(=O)Nc1ccc(C#N)cc1`, for which the cell number change is 36.2%. In addition, the AC50 under setting [1] was 29.1 µM [rising, single point]. In addition, the AC50 under setting [2] was 32.6 µM [rising, single point].

As to `CCCOc1ccc(N2C(=O)C3ON(c4ccccc4)C(c4ccc(O)c(OC)c4)C3C2=O)cc1` (stereo not drawn), the cell number change came to 76.1%. The AC50 under setting [1] is 14.6 µM [rising, partial curve]. On to `Cc1nc(C)c(-c2csc(Nc3ccc(F)cc3)n2)s1`, for which the cell number change was -23.5%. Under setting [2], the AC50 is 16.4 µM [falling, single point]. As to `O=[N+]([O-])c1ccc(-c2nc(-c3ccncc3)no2)cc1`, the cell number change was found to be 9.54%. The AC50 under setting [2] was 14.6 µM [rising, partial curve]. Regarding `CCCCNC(=O)N(C)c1nc2ccccc2s1`, the cell number change was -5.42%. Moreover, under setting [2], the AC50 was 0.259 µM [rising, partial curve]. Regarding `CCCNS(=O)(=O)c1ccc(CCC(=O)Nc2cc(Cl)ccc2Oc2ccccc2)cc1`, the cell number change is -12.4%. Further, the AC50 under setting [2] was 29.1 µM [falling, single point].

As for `O=c1[nH]c(SCCOc2ccccc2)nc2ccccc12`, the cell number change is -56.2%. Further, under setting [1], the AC50 was 29.1 µM [falling, partial curve]. In addition, the AC50 under setting [2] is 32.6 µM [falling, single point]. In the case of `CCOC(=O)c1ccc(Nc2cc(C)nc(C)c2C(=O)OCC)cc1`, the cell number change was 25.6%. Besides, the AC50 under setting [1] was 2.06 µM [rising, full curve, poor fit]. As to `Cc1ccc(-c2n[nH]c(=S)c3ccccc23)cc1S(=O)(=O)NCC1CCCO1` (stereo not drawn), the cell number change was -43.4%. Under setting [1], the AC50 is 14.6 µM [falling, partial curve, poor fit]. Take `O=C(CSc1n[nH]c(=O)n1C1CC1)Nc1cc(Cl)ccc1Oc1ccccc1`: the cell number change is -25.5%. Besides, the half-maximal activity concentration (AC50) under setting [2] was 29.1 µM [falling, single point]. In the case of `COc1ccc2[nH]c(=O)c(CN(Cc3cccnc3)S(=O)(=O)c3ccccc3F)cc2c1`, the cell number change is -21%. Besides, under setting [2], the AC50 was 0.184 µM [falling, single point]. Consider `C=CCn1c(CNS(=O)(=O)c2ccc(Br)cc2)n[nH]c1=S`, for which the AC50 under setting [2] was 2.59 µM [rising, single point].

`Cc1ccccc1NC(=O)CN1C(=O)CSc2ccccc21`: the cell number change was 13.5%. The AC50 under setting [1] was 0.517 µM [rising, partial curve, poor fit]. In addition, the AC50 under setting [2] is 0.731 µM [rising, full curve]. Consider `CCN(CC(=O)Nc1c(F)cccc1F)C(=O)C1CCN(C(=O)c2ccc(Cl)cc2)CC1`, for which the cell number change is -25%. In the case of `O=C(NCCc1cccnc1)C1CCC(=O)N(Cc2ccc(Cl)cc2)C1` (stereo not drawn), the cell number change came to 14.8%. Further, the AC50 under setting [2] was 0.58 µM [falling, single point].

Take `COc1ccccc1NS(=O)(=O)c1cccc(C(=O)NCC(c2ccc(F)cc2)N2CCOCC2)c1` (stereo not drawn): the AC50 was 3.66 µM [rising, single point] under setting [1] and 3.66 µM [rising, single point] under setting [2]. For `CC1(C)CC(=O)C(C2C3=C(CC(C)(C)CC3=O)Oc3ccccc32)=C(O)C1` (stereo not drawn), the cell number change is 7.86%. In addition, under setting [2], the AC50 is 0.366 µM [rising, full curve, poor fit].

Regarding `CCN1CCN(C(=O)c2nn(-c3ccc(C)cc3)c(=O)c3c2c2ccccc2n3C)CC1`, the cell number change is -2.84%. For the same compound, the AC50 under setting [2] is 13 µM [falling, partial curve, poor fit]. Consider `CCN(C(=O)CSc1nnnn1-c1ccccc1)C1CCS(=O)(=O)C1` (stereo not drawn), for which the cell number change is 22.8%. Further, under setting [1], the AC50 was 1.64 µM [falling, partial curve]. Further, the AC50 under setting [2] was 3.66 µM [falling, partial curve]. In the case of `O=C(CSc1nc(-c2ccco2)cc(C(F)(F)F)n1)N1CCc2ccccc2C1`, the cell number change is -49.1%. In addition, under setting [1], the AC50 is 16.4 µM [falling, single point]. For `Cc1ccc(N2/C(=N/c3nc(C)cc(C)n3)NC(=O)CC2C(=O)O)cc1` (stereo not drawn), the cell number change is -62.6%. The half-maximal activity concentration (AC50) under setting [1] was 18.4 µM [falling, single point]. Also, the AC50 under setting [2] was 20.6 µM [falling, single point]. `Cc1cc(Br)c(S(=O)(=O)NCc2cccnc2)cc1C`: the cell number change is -9.12%. Further, under setting [2], the AC50 is 0.00517 µM [falling, full curve, poor fit]. For the compound `S=C(NCCc1cccc(Cl)c1)NCc1ccccc1`, the cell number change was -8.67%. For `Cc1ccc(NC(=O)CC2C(=O)N(Cc3ccccc3)C(=S)N2NC(=O)c2ccccc2)c(C)c1` (stereo not drawn), the cell number change turned out to be 0.704%. Also, the half-maximal activity concentration (AC50) under setting [2] is 0.82 µM [rising, full curve]. `COc1cc(C)c(C(C)C)cc1S(=O)(=O)NCCCn1ccnc1`: the cell number change was -3.8%. Moreover, the AC50 under setting [2] was 29.1 µM [rising, single point]. Regarding `COc1ccc(/C=N/NC(=S)SC)cc1OC`, the cell number change was 20.1%. Under setting [1], the AC50 was 0.291 µM [rising, full curve, poor fit]. Regarding `CC1=C/C(=N\NC(=O)c2ccccc2)CC1`, the cell number change is -33.3%. Under setting [1], the half-maximal activity concentration (AC50) was 29.1 µM [falling, single point]. With `Cc1cc(C(=O)CSc2nnnn2C)c(C)n1CCc1ccc(Cl)cc1`, the cell number change is -11.5%. For the same compound, the AC50 under setting [2] is 29.1 µM [rising, single point].

`C=CCNCCCCOc1ccc(Br)cc1C`: the cell number change is 2.47%. Also, the AC50 under setting [2] was 0.651 µM [falling, single point]. With `CC1CCCC(NC(=O)CSc2nnc(N)s2)C1C` (stereo not drawn), the cell number change was -15.9%. The AC50 under setting [2] was 2.31 µM [falling, partial curve, poor fit]. Turning to `CCN(C(=O)CSc1nncs1)c1c(N)n(Cc2ccccc2)c(=O)[nH]c1=O`, the cell number change turned out to be 23.1%. For the same compound, the AC50 under setting [2] is 0.082 µM [rising, full curve, poor fit]. On to `N/C(COc1ccc(C(=O)O)cc1)=N\O`, for which the cell number change came out at 1.16%. Besides, the AC50 under setting [2] is 4.11 µM [falling, single point].

Regarding `COc1ccccc1CNC(=O)c1ccncc1`, the cell number change came to 13.9%. The AC50 under setting [2] is 29.1 µM [falling, single point]. Take `COc1ccc(N=C2CCCN2CC(N)=O)cc1`: the cell number change was -12.1%. The AC50 under setting [2] is 3.26 µM [falling, single point]. As to `CCOc1ccc(OCC)c(NC(=O)CN2CCN(c3cccc(C)c3)C(C)C2)c1` (stereo not drawn), the cell number change is -27%. For the same compound, the AC50 under setting [2] is 29.1 µM [falling, single point].

With `CCN(CC)CCN1C(=O)/C(=C\c2ccc(Cl)c([N+](=O)[O-])c2)SC1=Nc1ccc(OC)cc1`, the cell number change was 25.7%. `CCn1c(=O)oc2cc(NC(=O)CCl)ccc21`: the cell number change is -6.69%. As for `CCC(C)CCN1C(N(C)C)=NC[C@@H]1Cc1ccccc1` (stereo partly drawn), the cell number change was determined as 25.6%. Besides, the AC50 under setting [2] is 1.84 µM [rising, partial curve].

`O=C(COC(=O)Cc1ccccc1F)Nc1ccc(Cl)cn1`: the cell number change was found to be 12.7%.

As for `O=C(NC(CC(=O)N1CCCC(C(F)(F)F)C1)c1ccccc1)c1ccccc1Cl` (stereo not drawn), the cell number change came to 1.08%. As to `CC(C)C(=O)Nc1ccc(NC(=O)c2ccc3c(c2)OCO3)cc1`, the cell number change stood at 163%. The AC50 under setting [1] is 29.1 µM [rising, single point].

`C=CCN1C(=O)N/C(=C/c2ccc(N3CCOCC3)o2)C1=O`: the cell number change is -59.4%. Under setting [1], the AC50 was 29.1 µM [falling, single point]. Besides, under setting [2], the AC50 is 20.6 µM [falling, partial curve].
